According to PubChem BioAssay AID216 (DTP/NCI, 2004):
The list shows only some results of the screen, not a fair sample: it gathers tests that were run many times, whatever their T/C, doses with no T/C, and many T/C values between a quarter and a half above the control. Further doses and runs are listed elsewhere. T/C is the treated group as % of the vehicle group. Some entries give survivors of the animals treated and no T/C: the source files T/C as zero there, which appears to mark a toxic dose or a test without result, not a measured value. Some doses without a T/C left all or most animals alive at the check, yet need not have been tolerated: the source hardly ever lists a survival T/C far under the control, and the zero likely stands for such cases as well. Counts of survivors are from the toxicity check (mostly the fifth day) where no day follows; animals may have died later. Schedule codes are those of the source, taken here to give the interval after Q, in days (D) or hours (H), and the number of doses after X. Some entries were tested several times; their values stand side by side, smallest first. Some schedule codes hold Z or #, which are not explained here. Where survival is the endpoint, the PubChem record calls one and a half times the control and up active, and a quarter to a half above the control has no call in these data; cut-offs in other NCI protocols can differ. Additions like (4×) say how often a value occurs here.

System: BDF1 mice, P288 leukemia ip, survival T/C
Experiment: NCI In Vivo Anticancer Drug Screen. Data for tumor model P288 Lymphocytic Leukemia (intraperitoneal) in B6D2F1 (BDF1) mice
Settings: higher T/C = longer survival
Method: The antitumor activity of compounds was measured in mice bearing transplantable tumors. Survival or tumor size were measured and the results are expressed as the measurement made in the treated group (T) divided by the measurement made in the vehicle treated control group (C). The tumor model used in this assay is P288 Lymphocytic Leukemia (intraperitoneal) in B6D2F1 (BDF1) mice

[1] = T/C endpoint: survival time, mean or median, dose: 125.0 mg/kg/injection, schedule: Q01DX010 (ip), vehicle: saline
[2] = T/C endpoint: survival time, mean or median, dose: 125.0 mg/kg/injection, schedule: Q01DX Z (ip), vehicle: carboxymethylcellulose (CMC)
[3] = T/C endpoint: survival time, mean or median, dose: 62.5 mg/kg/injection, schedule: Q01DX Z (ip), vehicle: carboxymethylcellulose (CMC)
[4] = T/C endpoint: survival time, mean or median, dose: 50.0 mg/kg/injection, schedule: Q01DX Z (ip), vehicle: water
[5] = T/C endpoint: survival time, mean or median, dose: 16.0 mg/kg/injection, schedule: Q01DX Z (ip), vehicle: carboxymethylcellulose (CMC)
[6] = T/C endpoint: survival time, mean or median, dose: 120.0 mg/kg/injection, schedule: Q01DX010 (ip), vehicle: saline
[7] = T/C endpoint: survival time, mean or median, dose: 200.0 mg/kg/injection, schedule: Q01DX Z (ip), vehicle: carboxymethylcellulose (CMC)

SMILES: Nc1nc2n[nH]nc2c(=O)[nH]1
- T/C (T/C endpoint: survival time, mean or median, dose: 25.0 mg/kg/injection, schedule: Q01DX Z (ip), vehicle: other): 149 % of control
- T/C (T/C endpoint: survival time, mean or median, dose: 50.0 mg/kg/injection, schedule: Q01DX010 (ip), vehicle: alkali diluted with saline): 133 % of control
- T/C (T/C endpoint: survival time, mean or median, dose: 50.0 mg/kg/injection, schedule: Q01DX Z (ip), vehicle: other): 141 % of control
- survivor count (T/C endpoint: survival time, mean or median, dose: 100.0 mg/kg/injection, schedule: Q01DX010 (ip), vehicle: alkali diluted with saline): 0 of 6
- T/C (T/C endpoint: survival time, mean or median, dose: 200.0 mg/kg/injection, schedule: Q01DX010 (ip), vehicle: alkali diluted with saline): 144 % of control
- T/C (T/C endpoint: survival time, mean or median, dose: 400.0 mg/kg/injection, schedule: Q01DX Z (ip), vehicle: other): 131 % of control
- survivor count (T/C endpoint: survival time, mean or median, dose: 800.0 mg/kg/injection, schedule: Q01DX Z (ip), vehicle: alkali diluted with CMC): 1 of 6
- survivor count (T/C endpoint: survival time, mean or median, dose: 1600.0 mg/kg/injection, schedule: Q01DX Z (ip), vehicle: alkali diluted with CMC): 0 of 6

SMILES: COC12C(COC(N)=O)C3=C(C(=O)C(C)=C(N)C3=O)N1CC1C2N1C (configuration not stated)
- T/C (T/C endpoint: survival time, mean or median, dose: 2.5 mg/kg/injection, schedule: Q01DX Z (ip), vehicle: carboxymethylcellulose (CMC)): 128 and 134 % of control

SMILES: Nc1ncnc2[nH]ncc12
- T/C (T/C endpoint: survival time, mean or median, dose: 6.0 mg/kg/injection, schedule: Q01DX010 (ip), vehicle: saline): 128 % of control
- T/C (T/C endpoint: survival time, mean or median, dose: 12.0 mg/kg/injection, schedule: Q01DX010 (ip), vehicle: saline): 128 % of control
- survivor count (T/C endpoint: survival time, mean or median, dose: 50.0 mg/kg/injection, schedule: Q01DX Z (ip), vehicle: carboxymethylcellulose (CMC)): 2 of 6

SMILES: CN1c2c(nc(N)[nH]c2=O)NCC1CCNc1ccc(C(=O)NC(CCC(=O)O)C(=O)O)cc1 (configuration not stated)
- T/C (T/C endpoint: median survival time, dose: 100.0 mg/kg/injection, schedule: Q01DX009 (ip), vehicle: other): 129 % of control
- T/C (T/C endpoint: median survival time, dose: 200.0 mg/kg/injection, schedule: Q01DX009 (ip), vehicle: other): 141 % of control

SMILES: CCOC(N)=O
- T/C (T/C endpoint: survival time, mean or median, dose: 250.0 mg/kg/injection, schedule: Q01DX010 (ip), vehicle: saline): 126 % of control
- survivor count (T/C endpoint: survival time, mean or median, dose: 1000.0 mg/kg/injection, schedule: Q01DX010 (ip), vehicle: saline): 5 of 6 and 6 of 6

SMILES: CCn1cnc2c(=S)nc[nH]c21
- survivor count (T/C endpoint: survival time, mean or median, dose: 7.8 mg/kg/injection, schedule: Q01DX Z (ip), vehicle: carboxymethylcellulose (CMC)): 6 of 6
- survivor count (T/C endpoint: survival time, mean or median, dose: 15.6 mg/kg/injection, schedule: Q01DX010 (ip), vehicle: saline): 6 of 6
- survivor count (T/C endpoint: survival time, mean or median, dose: 31.3 mg/kg/injection, schedule: Q01DX010 (ip), vehicle: saline): 6 of 6
- survivor count (T/C endpoint: survival time, mean or median, dose: 62.5 mg/kg/injection, schedule: Q01DX010 (ip), vehicle: saline): 6 of 6
- survivor count [1]: 5 of 6
- survivor count [2]: 6 of 6

SMILES: N=[N+]=CC(=O)OCC(N)C(=O)O (configuration not stated)
- T/C (T/C endpoint: survival time, mean or median, dose: 25.0 mg/kg/injection, schedule: Q01DX010 (ip), vehicle: saline): 133 % of control

SMILES: O=C(Nc1ccc(C2=NCCCN2)cc1)c1ccc(NC(=O)c2ccc(C3=NCCCN3)cc2)cc1
- T/C (T/C endpoint: survival time, mean or median, dose: 1.0 mg/kg/injection, schedule: Q01DX010 (ip), vehicle: other): 133 % of control
- T/C (T/C endpoint: survival time, mean or median, dose: 2.0 mg/kg/injection, schedule: Q01DX010 (ip), vehicle: other): 137 % of control
- T/C (T/C endpoint: survival time, mean or median, dose: 15.6 mg/kg/injection, schedule: Q01DX Z (ip), vehicle: carboxymethylcellulose (CMC)): 141 % of control
- survivor count (T/C endpoint: survival time, mean or median, dose: 16.0 mg/kg/injection, schedule: Q01DX010 (ip), vehicle: other): 6 of 6
- survivor count [3]: 0 of 6
- survivor count [2]: 0 of 6

SMILES: COS(C)(=O)=O
- T/C [4]: 131 % of control
- survivor count (T/C endpoint: survival time, mean or median, dose: 200.0 mg/kg/injection, schedule: Q01DX Z (ip), vehicle: water): 0 of 6

SMILES: C[C@@H]1C[C@@H]([C@H](O)CC2CC(=O)NC(=O)C2)C(=O)[C@@H](C)C1
- survivor count (T/C endpoint: survival time, mean or median, dose: 5.0 mg/kg/injection, schedule: Q01DX010 (ip), vehicle: saline): 6 of 6
- survivor count [4]: 4 of 6
- survivor count (T/C endpoint: survival time, mean or median, dose: 100.0 mg/kg/injection, schedule: Q01DX Z (ip), vehicle: water): 0 of 6

SMILES: N#Cc1cn(C2OC(CO)C(O)C2O)c2ncnc(N)c12 (configuration not stated)
- T/C (T/C endpoint: survival time, mean or median, dose: 0.06 mg/kg/injection, schedule: Q01DX Z (ip), vehicle: carboxymethylcellulose (CMC)): 128 % of control
- survivor count (T/C endpoint: survival time, mean or median, dose: 2000.0 micrograms/kg/injection, schedule: Q01DX Z (ip), vehicle: carboxymethylcellulose (CMC)): 2 of 6

SMILES: O=c1[nH]c(=O)n(C2CC(O)C(CO)O2)cc1Br (configuration not stated)
- survivor count [5]: 5 of 6
- survivor count [3]: 6 of 6
- survivor count [2]: 6 of 6
- survivor count (T/C endpoint: survival time, mean or median, dose: 250.0 mg/kg/injection, schedule: Q01DX Z (ip), vehicle: carboxymethylcellulose (CMC)): 6 of 6
- survivor count (T/C endpoint: survival time, mean or median, dose: 500.0 mg/kg/injection, schedule: Q01DX Z (ip), vehicle: carboxymethylcellulose (CMC)): 6 of 6

SMILES: CC(=O)Nc1ccc(/C=N/Nc2ccc([N+](=O)[O-])cn2)cc1
- survivor count [1]: 6 of 6

SMILES: NC(CCSCc1ccc(N(CCCl)CCCl)cc1)C(=O)O (configuration not stated)
- T/C (T/C endpoint: survival time, mean or median, dose: 36.0 mg/kg/injection, schedule: Q01DX010 (ip), vehicle: saline): 144 % of control
- T/C [6]: 138 % of control

SMILES: N#CCSc1ncnc2nc[nH]c12
- survivor count (T/C endpoint: survival time, mean or median, dose: 15.0 mg/kg/injection, schedule: Q01DX010 (ip), vehicle: saline): 6 of 6
- survivor count (T/C endpoint: survival time, mean or median, dose: 25.0 mg/kg/injection, schedule: Q01DX Z (ip), vehicle: carboxymethylcellulose (CMC)): 6 of 6
- survivor count (T/C endpoint: survival time, mean or median, dose: 30.0 mg/kg/injection, schedule: Q01DX010 (ip), vehicle: saline): 6 of 6
- survivor count (T/C endpoint: survival time, mean or median, dose: 60.0 mg/kg/injection, schedule: Q01DX010 (ip), vehicle: saline): 6 of 6
- survivor count (T/C endpoint: survival time, mean or median, dose: 100.0 mg/kg/injection, schedule: Q01DX Z (ip), vehicle: carboxymethylcellulose (CMC)): 3 of 6 and 6 of 6
- survivor count [6]: 6 of 6
- survivor count [7]: 2 of 6
- survivor count (T/C endpoint: survival time, mean or median, dose: 240.0 mg/kg/injection, schedule: Q01DX010 (ip), vehicle: saline): 3 of 6

SMILES: CCCCn1cnc2c(=S)nc[nH]c21
- T/C (T/C endpoint: survival time, mean or median, dose: 128.0 mg/kg/injection, schedule: Q01DX010 (ip), vehicle: saline): 127 % of control
- survivor count [7]: 6 of 6
- survivor count (T/C endpoint: survival time, mean or median, dose: 400.0 mg/kg/injection, schedule: Q01DX Z (ip), vehicle: carboxymethylcellulose (CMC)): 0 of 6
- survivor count (T/C endpoint: survival time, mean or median, dose: 800.0 mg/kg/injection, schedule: Q01DX Z (ip), vehicle: carboxymethylcellulose (CMC)): 0 of 6

SMILES: CN(Cc1cnc2nc(N)nc(N)c2n1)c1ccc(C(=O)N[C@@H](CCC(=O)O)C(=O)O)cc1
- T/C (T/C endpoint: median survival time, dose: 0.19 mg/kg/injection, schedule: Q01DX009 (ip), vehicle: sodium bicarbonate): 141 % of control
- T/C (T/C endpoint: survival time, mean or median, dose: 0.19 mg/kg/injection, schedule: Q01DX010 (ip), vehicle: other): 127 (2×) and 148 % of control
- T/C (T/C endpoint: survival time, mean or median, dose: 0.31 mg/kg/injection, schedule: Q01DX Z (ip), vehicle: other): 148 % of control
- T/C (T/C endpoint: survival time, mean or median, dose: 0.62 mg/kg/injection, schedule: Q01DX Z (ip), vehicle: other): 147 % of control
- T/C (T/C endpoint: survival time, mean or median, dose: 2.5 mg/kg/injection, schedule: Q01DX Z (ip), vehicle: other): 132 % of control
- T/C (T/C endpoint: survival time, mean or median, dose: 3.0 mg/kg/injection, schedule: Q01DX010 (ip), vehicle: other): 140 % of control
- T/C (T/C endpoint: survival time, mean or median, dose: 3.0 mg/kg/injection, schedule: Q01DX Z (ip), vehicle: other): 126 % of control

SMILES: NC(=O)N(CCCl)N=O
- survivor count (T/C endpoint: survival time, mean or median, dose: 4.0 mg/kg/injection, schedule: Q01DX010 (ip), vehicle: saline): 6 of 6
- survivor count [5]: 6 of 6
- survivor count (T/C endpoint: survival time, mean or median, dose: 32.0 mg/kg/injection, schedule: Q01DX Z (ip), vehicle: carboxymethylcellulose (CMC)): 4 of 6
- survivor count (T/C endpoint: survival time, mean or median, dose: 64.0 mg/kg/injection, schedule: Q01DX Z (ip), vehicle: carboxymethylcellulose (CMC)): 0 of 6
